Measurements published in publication PMC7171490.
These are yes or no findings as the source states them, for the method shown. In cells and extracts the contact can be indirect. Some results given as binding are weak or reduced against the parent protein; the word gives no strength.

Sequences of proteins named here, by UniProt entry; tags and fusion partners are left off.
UniProt P15172: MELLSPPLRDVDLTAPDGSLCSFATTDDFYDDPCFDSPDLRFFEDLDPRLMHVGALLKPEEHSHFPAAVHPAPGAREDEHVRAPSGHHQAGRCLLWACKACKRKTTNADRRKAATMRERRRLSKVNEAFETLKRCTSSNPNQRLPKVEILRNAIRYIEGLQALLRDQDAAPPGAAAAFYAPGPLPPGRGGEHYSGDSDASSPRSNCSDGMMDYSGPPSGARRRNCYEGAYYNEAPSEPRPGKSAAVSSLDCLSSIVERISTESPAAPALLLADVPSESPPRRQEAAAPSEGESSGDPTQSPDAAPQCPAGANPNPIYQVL

Target: MyoD1 (human (endogenous in MCF-7/Adr)) (UniProt P15172)
Test: co-IP; 1500 ug precleared MCF7/Adr cell lysate immunoprecipitated with 1 ug anti-MyoD1 antibody overnight at 4°C, Protein A Sepharose CL-4B; western blot for ID4 and MyoD1

binding: binds
B1: Inhibitor of DNA binding factor 4 (ID4) (protein, UniProt P47928 1-161)
chain: MKAVSPVRPSGRKAPSGCGGGELALRCLAEHGHSLGGSAAAAAAAAAARCKAAEAAADEPALCLQCDMNDCYSRLRRLVPTIPPNKKVSKVEILQHVIDYILDLQLALETHPALLRQPPPPAPPHHPAGTCPAAPPRTPLTALNTDPAGAVNKQGDSILCR
